Reference: article PMC7195466, “A common allosteric mechanism regulates homeostatic inactivation of auxin and gibberellin” (Nature Communications, 2020)
No constants are given. Whether binding was seen depends on the method and setting. In cells and extracts the contact can be indirect. Where a sequence is shown, tags or fusion partners need not be part of it.

Target: OsGA2ox6 R332A fused with N- or C-YFP (BiFC) (rice (Oryza sativa)) (UniProt Q7XP65)
Test: split reporter; BiFC: N-YFP and C-YFP fusions expressed together in rice T65 mesophyll protoplasts; confocal microscopy

binding: no binding
B1: OsGA2ox6 R332A fused with N- or C-YFP (BiFC) (enzyme, UniProt Q7XP65 1-358)
chain: MPAFADIAIDPPLADSYRALALLRRDRDGGIAPPAVQMVGSGGAVLERDLPMVDLERLTRGGAGERKACAGAMARAASEWGFFQLTNHGVGRELMEEMRREQARLFRLPFETKEKAGLLNGSYRWGNPTATSLRHLSWSEAFHVPLASISGADCDFGDLTSLRGVMQEVAEAMSRVANTVAAALAEELTGRGGGGASAAPWFPAGCDETTCFLRLNRYPACPFAADTFGLVPHTDSDFLTVLCQDQVGGLHLMKDSRWVAVRPRPDALVVNIGDLFQAWSNNRYKSVEHKVVANAKTDRLSVAYFLCPSYDSLVGTCGEPSPYRAFTFGEYAKKVQEDVRTTGKKIGLPNFFKHSSVQ
